In the assay the target is LRP6 (human (endogenous in HeLa)) (UniProt O75581). As to the kind of experiment: proximity ligation; in situ Duolink PLA on fixed, permeabilised HeLa cells, endogenous proteins; primary antibodies against CD44-ICD and LRP6, DVL2 or AXIN; cells treated with Wnt3a CM for 15 and 45 min, compared to control CM.

By UniProt entry, the sequences of proteins in these tests, tags left out. Residues count along the entry.
UniProt O75581, residues 20-1613: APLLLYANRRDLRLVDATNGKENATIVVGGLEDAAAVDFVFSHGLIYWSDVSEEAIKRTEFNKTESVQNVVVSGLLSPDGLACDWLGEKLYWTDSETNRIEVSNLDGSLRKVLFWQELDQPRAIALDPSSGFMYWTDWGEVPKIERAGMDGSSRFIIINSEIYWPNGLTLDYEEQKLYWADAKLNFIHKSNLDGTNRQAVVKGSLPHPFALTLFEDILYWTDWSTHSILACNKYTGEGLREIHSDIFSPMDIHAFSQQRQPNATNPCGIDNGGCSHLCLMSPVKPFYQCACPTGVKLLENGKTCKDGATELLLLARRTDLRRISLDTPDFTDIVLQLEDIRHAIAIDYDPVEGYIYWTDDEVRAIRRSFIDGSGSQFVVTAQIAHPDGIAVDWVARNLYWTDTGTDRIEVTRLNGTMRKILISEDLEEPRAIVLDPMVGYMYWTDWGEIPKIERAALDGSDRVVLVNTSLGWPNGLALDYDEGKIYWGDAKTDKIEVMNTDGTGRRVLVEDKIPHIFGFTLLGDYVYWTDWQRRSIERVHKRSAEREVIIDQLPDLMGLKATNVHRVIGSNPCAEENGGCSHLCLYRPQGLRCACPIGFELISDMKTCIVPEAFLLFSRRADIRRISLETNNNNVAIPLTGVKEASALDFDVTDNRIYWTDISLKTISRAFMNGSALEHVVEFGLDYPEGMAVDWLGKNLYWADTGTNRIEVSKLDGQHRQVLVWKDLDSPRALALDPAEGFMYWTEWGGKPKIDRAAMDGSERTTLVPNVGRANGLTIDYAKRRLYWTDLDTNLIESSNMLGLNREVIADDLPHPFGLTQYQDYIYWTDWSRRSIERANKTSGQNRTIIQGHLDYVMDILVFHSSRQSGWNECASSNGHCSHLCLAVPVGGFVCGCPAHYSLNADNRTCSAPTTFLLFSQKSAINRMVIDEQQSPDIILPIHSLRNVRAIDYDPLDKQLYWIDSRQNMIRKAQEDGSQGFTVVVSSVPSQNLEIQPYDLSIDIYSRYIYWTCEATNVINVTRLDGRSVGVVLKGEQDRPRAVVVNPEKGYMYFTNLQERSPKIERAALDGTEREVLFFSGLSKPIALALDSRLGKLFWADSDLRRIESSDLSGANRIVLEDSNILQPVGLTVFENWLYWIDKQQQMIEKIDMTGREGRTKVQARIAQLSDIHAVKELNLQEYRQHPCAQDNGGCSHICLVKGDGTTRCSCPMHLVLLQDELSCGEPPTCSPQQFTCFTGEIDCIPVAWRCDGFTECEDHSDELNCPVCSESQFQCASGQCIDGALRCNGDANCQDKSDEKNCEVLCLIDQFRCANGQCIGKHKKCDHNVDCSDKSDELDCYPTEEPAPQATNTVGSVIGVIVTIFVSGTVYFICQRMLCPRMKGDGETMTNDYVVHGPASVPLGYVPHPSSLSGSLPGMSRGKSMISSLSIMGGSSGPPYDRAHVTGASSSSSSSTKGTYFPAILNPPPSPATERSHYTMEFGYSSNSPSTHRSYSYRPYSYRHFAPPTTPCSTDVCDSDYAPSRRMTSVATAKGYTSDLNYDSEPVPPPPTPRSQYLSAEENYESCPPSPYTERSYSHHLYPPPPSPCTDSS
UniProt P16070, residues 21-742: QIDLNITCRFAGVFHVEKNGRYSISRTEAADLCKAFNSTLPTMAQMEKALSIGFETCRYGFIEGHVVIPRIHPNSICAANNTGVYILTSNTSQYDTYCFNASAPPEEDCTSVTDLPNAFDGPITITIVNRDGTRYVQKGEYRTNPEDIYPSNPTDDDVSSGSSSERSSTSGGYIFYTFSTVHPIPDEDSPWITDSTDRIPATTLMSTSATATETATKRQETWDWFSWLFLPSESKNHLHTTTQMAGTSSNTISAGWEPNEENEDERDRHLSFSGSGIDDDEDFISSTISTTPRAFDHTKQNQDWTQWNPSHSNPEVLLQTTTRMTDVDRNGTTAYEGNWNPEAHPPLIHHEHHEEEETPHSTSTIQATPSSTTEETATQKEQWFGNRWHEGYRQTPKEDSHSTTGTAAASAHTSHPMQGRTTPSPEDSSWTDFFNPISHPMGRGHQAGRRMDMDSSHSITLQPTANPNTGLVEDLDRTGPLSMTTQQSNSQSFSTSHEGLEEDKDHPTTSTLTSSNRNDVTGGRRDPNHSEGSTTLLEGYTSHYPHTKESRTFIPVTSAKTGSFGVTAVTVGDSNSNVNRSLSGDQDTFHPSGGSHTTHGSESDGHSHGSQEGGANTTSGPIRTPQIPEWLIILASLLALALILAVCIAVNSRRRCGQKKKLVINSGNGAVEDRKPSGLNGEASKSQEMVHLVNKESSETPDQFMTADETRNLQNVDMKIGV

These are yes or no findings as the source states them, for the method shown. Binding seen in cells or lysates may run through a third protein. Some results given as binding are weak or reduced against the parent protein; the word gives no strength.

Consider “CD44 (from UniProt P16070 21-742) (receptor)”, for which the binding result is reported as “binds”.

These data come from article PMC8861016.
